From patent US20250235508A1 (THE SCRIPPS RESEARCH INSTITUTE, priority 2015, published 2025)

Test: general procedure: Fmoc solid-phase peptide synthesis
Details: whole synthesis, scale 0.1 mmol

HsQGTFTSDYSKYLDEXAAKEFIXWLLRA
final HPLC purity (analytical reversed phase C18 HPLC (Phenomenex, C18, 120A, 4.6x50 mm)): >95%
isolated yield: 11% yield
